Consider 38 targets from the supplement of paper PMC11006884.

By UniProt entry, the sequences of proteins in these tests, tags left out. Where a name states a change or a piece, a line headed by the entry shows the natural chain unless it says otherwise.
UniProt P21333, whole entry, looked up: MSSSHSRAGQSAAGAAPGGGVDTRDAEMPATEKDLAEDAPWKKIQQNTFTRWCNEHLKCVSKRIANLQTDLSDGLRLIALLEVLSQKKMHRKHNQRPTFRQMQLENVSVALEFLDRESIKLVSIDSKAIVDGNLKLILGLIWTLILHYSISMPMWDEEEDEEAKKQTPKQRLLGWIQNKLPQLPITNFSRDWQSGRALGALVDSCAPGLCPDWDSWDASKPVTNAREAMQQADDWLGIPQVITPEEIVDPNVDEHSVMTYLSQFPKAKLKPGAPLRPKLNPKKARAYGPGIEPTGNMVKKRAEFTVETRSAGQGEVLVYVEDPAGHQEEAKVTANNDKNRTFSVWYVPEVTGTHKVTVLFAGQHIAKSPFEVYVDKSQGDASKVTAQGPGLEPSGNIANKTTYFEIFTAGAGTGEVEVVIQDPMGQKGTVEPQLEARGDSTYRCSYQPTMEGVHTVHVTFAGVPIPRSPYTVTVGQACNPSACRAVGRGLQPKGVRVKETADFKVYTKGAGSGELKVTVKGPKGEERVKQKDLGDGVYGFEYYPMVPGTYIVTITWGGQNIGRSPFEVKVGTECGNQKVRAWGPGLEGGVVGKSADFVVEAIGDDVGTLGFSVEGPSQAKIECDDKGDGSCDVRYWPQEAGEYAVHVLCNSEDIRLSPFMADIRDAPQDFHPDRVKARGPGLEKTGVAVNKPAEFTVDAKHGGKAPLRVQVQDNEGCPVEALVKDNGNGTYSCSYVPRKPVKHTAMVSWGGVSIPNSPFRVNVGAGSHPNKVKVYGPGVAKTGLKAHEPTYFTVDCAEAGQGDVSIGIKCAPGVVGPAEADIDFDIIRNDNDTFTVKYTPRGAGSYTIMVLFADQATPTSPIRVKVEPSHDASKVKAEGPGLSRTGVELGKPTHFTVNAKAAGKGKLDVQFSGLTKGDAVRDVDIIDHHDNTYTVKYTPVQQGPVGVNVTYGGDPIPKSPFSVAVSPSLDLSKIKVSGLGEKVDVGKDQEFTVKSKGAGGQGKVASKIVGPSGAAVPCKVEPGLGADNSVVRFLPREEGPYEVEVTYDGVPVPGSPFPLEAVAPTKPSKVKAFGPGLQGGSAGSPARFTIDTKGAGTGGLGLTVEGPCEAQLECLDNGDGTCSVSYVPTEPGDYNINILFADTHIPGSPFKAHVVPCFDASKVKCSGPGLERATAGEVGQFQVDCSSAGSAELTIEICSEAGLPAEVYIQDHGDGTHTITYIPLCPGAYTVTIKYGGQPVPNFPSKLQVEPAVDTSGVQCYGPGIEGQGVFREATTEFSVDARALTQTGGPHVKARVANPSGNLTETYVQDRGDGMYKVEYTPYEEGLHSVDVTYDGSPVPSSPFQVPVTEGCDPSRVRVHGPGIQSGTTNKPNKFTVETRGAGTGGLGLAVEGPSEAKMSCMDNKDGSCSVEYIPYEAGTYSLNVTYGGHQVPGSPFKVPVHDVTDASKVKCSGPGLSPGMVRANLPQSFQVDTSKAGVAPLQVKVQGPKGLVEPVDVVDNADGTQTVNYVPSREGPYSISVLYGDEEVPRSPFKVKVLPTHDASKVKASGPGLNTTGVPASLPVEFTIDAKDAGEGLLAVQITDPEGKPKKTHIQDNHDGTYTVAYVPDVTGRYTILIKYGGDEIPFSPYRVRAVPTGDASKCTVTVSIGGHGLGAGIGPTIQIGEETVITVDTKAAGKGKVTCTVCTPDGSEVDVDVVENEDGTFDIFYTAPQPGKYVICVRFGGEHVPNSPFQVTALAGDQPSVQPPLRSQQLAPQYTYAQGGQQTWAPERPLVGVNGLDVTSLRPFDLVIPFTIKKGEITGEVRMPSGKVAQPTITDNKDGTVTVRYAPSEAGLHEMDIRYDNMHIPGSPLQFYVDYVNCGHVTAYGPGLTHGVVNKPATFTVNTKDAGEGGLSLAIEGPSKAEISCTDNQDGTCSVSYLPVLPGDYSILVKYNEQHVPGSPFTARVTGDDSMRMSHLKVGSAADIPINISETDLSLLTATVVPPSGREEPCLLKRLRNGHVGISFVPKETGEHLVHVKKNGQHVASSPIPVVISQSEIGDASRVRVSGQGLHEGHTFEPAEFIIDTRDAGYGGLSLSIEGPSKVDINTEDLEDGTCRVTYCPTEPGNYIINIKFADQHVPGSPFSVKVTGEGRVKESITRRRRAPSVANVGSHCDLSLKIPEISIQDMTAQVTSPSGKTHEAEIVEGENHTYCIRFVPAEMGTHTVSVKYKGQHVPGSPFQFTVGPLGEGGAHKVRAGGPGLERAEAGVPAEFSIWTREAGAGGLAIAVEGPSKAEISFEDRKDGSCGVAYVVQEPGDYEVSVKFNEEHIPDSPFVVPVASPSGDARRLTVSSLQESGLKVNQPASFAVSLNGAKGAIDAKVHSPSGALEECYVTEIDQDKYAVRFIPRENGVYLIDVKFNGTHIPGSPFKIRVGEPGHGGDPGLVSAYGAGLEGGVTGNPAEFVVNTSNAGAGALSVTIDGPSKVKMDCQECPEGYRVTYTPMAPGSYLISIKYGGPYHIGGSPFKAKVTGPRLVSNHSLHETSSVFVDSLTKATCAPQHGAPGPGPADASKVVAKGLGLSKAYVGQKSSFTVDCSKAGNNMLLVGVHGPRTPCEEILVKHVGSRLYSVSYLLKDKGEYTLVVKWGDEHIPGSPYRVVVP
UniProt P21399: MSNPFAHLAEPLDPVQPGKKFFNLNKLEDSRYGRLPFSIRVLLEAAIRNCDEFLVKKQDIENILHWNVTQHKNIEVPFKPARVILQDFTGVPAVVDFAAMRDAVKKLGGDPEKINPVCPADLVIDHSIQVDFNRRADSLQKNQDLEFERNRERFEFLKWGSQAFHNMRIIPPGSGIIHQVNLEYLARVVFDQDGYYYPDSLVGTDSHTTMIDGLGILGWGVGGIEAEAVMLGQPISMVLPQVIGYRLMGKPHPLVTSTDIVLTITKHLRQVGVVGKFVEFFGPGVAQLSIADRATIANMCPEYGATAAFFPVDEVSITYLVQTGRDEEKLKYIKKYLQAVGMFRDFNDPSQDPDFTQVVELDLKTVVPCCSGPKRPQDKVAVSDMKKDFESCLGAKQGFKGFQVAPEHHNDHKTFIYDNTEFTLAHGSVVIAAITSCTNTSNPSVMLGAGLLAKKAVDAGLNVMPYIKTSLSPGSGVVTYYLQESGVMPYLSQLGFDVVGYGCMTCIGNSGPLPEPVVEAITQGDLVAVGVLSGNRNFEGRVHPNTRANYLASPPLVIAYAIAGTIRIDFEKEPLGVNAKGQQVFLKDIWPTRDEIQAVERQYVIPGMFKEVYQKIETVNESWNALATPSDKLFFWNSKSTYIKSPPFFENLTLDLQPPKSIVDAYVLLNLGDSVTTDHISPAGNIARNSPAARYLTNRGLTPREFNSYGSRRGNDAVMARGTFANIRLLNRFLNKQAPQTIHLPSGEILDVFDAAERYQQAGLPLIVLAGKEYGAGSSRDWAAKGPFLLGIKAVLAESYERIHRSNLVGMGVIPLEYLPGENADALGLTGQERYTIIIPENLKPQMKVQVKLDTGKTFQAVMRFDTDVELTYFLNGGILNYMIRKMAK
UniProt P27708: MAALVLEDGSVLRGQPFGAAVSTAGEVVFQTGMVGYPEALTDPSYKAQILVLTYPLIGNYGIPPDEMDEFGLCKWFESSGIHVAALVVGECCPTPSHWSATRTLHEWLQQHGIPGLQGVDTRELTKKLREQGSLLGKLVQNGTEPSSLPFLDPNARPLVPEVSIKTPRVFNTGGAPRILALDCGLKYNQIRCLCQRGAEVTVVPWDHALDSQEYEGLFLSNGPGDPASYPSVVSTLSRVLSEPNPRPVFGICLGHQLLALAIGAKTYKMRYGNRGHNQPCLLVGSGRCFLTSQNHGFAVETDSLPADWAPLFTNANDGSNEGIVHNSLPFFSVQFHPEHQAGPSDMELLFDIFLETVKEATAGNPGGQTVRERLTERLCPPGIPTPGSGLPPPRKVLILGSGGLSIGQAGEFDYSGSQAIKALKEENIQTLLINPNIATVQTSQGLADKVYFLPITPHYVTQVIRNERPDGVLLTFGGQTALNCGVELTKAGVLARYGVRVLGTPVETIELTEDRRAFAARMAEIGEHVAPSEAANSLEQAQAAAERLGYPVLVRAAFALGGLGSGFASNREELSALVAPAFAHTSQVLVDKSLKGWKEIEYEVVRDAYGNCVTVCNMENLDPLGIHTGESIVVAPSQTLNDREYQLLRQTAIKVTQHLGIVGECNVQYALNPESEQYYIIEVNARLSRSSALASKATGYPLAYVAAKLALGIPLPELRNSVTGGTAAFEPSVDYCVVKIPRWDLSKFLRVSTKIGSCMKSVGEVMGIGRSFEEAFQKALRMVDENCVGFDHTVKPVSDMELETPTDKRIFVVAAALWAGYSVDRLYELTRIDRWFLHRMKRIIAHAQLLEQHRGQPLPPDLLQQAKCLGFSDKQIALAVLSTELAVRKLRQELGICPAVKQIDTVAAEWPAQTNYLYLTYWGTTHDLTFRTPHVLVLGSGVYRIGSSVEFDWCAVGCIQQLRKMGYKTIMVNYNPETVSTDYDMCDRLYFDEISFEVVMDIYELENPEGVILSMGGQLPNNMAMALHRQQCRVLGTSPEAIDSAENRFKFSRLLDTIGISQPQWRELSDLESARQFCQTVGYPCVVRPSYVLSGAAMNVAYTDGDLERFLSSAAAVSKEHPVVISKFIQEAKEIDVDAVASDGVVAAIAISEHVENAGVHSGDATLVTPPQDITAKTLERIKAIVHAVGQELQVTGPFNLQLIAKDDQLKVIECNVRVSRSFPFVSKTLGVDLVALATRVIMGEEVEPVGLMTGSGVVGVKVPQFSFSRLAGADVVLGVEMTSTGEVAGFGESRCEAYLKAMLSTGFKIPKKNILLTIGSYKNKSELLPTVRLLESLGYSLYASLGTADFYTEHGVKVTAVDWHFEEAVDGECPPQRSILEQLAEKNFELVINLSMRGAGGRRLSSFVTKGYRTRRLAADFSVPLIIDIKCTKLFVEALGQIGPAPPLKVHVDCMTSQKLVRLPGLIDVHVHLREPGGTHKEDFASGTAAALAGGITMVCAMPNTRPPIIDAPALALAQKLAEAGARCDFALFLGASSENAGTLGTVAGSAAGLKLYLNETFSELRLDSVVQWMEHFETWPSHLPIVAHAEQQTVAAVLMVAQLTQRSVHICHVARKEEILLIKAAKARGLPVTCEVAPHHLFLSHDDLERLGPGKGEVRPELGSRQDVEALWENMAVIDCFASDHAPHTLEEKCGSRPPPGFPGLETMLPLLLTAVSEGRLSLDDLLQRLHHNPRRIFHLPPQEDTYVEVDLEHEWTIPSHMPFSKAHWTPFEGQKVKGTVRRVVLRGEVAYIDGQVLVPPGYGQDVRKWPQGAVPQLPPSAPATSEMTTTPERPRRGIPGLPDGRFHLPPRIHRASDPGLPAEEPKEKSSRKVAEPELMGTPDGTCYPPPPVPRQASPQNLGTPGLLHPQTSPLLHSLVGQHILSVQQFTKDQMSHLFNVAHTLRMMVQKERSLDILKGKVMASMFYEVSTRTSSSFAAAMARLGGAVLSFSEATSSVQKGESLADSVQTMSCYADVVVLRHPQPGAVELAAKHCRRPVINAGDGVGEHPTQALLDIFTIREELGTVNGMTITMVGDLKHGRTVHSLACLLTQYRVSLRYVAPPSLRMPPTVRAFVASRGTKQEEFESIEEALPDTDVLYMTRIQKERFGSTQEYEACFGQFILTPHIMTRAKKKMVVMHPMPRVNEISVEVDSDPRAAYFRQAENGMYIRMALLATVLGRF
UniProt P27348: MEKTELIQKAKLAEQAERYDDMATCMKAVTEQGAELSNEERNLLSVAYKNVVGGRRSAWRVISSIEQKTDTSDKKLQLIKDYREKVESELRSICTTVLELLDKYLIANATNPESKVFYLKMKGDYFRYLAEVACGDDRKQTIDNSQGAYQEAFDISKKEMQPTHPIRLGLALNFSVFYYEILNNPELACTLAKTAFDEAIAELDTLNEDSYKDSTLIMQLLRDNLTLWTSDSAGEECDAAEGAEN
UniProt P26599: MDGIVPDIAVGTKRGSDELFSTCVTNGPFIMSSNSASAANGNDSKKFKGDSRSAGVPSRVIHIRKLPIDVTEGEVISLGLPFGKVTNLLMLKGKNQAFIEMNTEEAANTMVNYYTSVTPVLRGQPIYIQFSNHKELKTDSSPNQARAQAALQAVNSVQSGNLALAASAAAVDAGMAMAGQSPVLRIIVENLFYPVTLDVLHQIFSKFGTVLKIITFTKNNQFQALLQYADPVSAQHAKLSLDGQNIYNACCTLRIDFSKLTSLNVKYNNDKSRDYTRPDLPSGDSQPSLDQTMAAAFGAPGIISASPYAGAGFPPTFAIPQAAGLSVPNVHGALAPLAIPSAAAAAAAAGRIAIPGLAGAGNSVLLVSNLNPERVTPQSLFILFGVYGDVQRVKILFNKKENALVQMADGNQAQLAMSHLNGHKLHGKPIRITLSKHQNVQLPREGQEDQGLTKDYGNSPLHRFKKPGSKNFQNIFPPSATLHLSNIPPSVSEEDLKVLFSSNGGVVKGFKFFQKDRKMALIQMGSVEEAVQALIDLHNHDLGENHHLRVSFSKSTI

Only a part is listed here, and it is no random draw.

Compound in the assay: COC(=O)C#Cc1ccccc1 [methyl 3-phenylpropiolate]
The experiment in a line: log2 ratio of iodoacetamide-alkyne labeling of the cysteine site, DMSO over compound (competition); higher = stronger covalent engagement of the cysteine by the compound, active = 1 or more. The settings on record: 500 µM; treatment time 1 h; system: HEK293T cell lysate. Summed up: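 Electrophile (500 µM) or vehicle was added to HEK293T lysate (2 mg/mL) for 1 h at ambient temperature before iodoacetamide alkyne labelling (1 h) and click coupling to sCIP-TMT reagents. After pooling, overnight trypsin digestion at 37 °C, streptavidin enrichment and acid elution, peptides were measured by Orbitrap Eclipse LC-MS/MS with FAIMS and quantified in FragPipe. Each cysteine's log2 competition ratio compares mean control-channel with mean compound-channel reporter intensity, control over compound. Data came from duplicate channels across three replicates, excluding cysteines quantified in only one replicate.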
Regarding FLNA C1997 (UniProt P21333), the “log2 ratio of iodoacetamide-alkyne labeling” value (from here on “log2 ratio”) was inactive: 0.0962.
In the case of HNRNPA2B1 C50 (UniProt P22626) it was inactive: -0.0591; in that of FBL C268 (UniProt P22087), inactive: 0.27.
In the case of ACO1 C369 (UniProt P21399) it was inactive: 0.121; in that of VARS C917 (UniProt P26640), inactive: 0.429.
In the case of PAICS C288 (UniProt P22234) it was inactive: -0.0455; in that of CAD C379 (UniProt P27708), inactive: -0.0222; in that of WARS C274 (UniProt P23381), inactive: 0.166.
In the case of PTPN1 C32 (UniProt P18031), the “log2 ratio” value was inactive: 0.0778.
Turning to RPL10 C49 (UniProt P27635), the “log2 ratio” value is inactive: 0.507.
Regarding GART C466 (UniProt P22102), the “log2 ratio” value was inactive: 0.199.
In the case of RPS3 C119 (UniProt P23396), the “log2 ratio” value is inactive: -0.136.
In the case of RCC1 C93 (UniProt P18754) it was inactive: 0.14; in that of UniProt P21127_C440, inactive: 0.363.
The figure for CHML C582 (UniProt P26374) is inactive: -0.0416; for TCP1 C296 (UniProt P17987) it is inactive: 0.00301; for AHCY C421 (UniProt P23526) it is inactive: 0.126.
In the case of GLDC C612 (UniProt P23378), the “log2 ratio” value was inactive: 0.41.
Turning to YWHAQ C134 (UniProt P27348), the “log2 ratio” value was inactive: -0.0407.
Turning to TKT C206 (UniProt P29401), the “log2 ratio” value is inactive: -0.631.
The figure for FBL C99 (UniProt P22087) is inactive: 0.566; for BCKDHB C177 (UniProt P21953) it is inactive: 0.0777.
In the case of FLNA C796 (UniProt P21333) it was inactive: -0.159.
On to PTBP1 C251 (UniProt P26599), for which the “log2 ratio” value was inactive: 0.112.
In the case of UniProt P27361_C271 it was inactive: 0.361; in that of ABCD3 C24 (UniProt P28288), inactive: -0.00131; in that of FLNA C53 (UniProt P21333), inactive: 0.133.
The figure for UniProt P28482_C166 is inactive: 0.126.
The figure for IMPA1 C24 (UniProt P29218) is inactive: 0.368.
In the case of COMT C223 (UniProt P21964), the “log2 ratio” value is inactive: 0.307.
The figure for MCM3 C119 (UniProt P25205) is inactive: 0.38; for TCP1 C236 (UniProt P17987) it is inactive: 0.129; for PFKL C630 (UniProt P17858) it is inactive: 0.268.
For FLNA C2543 (UniProt P21333), the “log2 ratio” value was inactive: 0.267.
Take RPS3 C97 (UniProt P23396): the “log2 ratio” value is active: 2.45.
In the case of PML C60 (UniProt P29590) it was inactive: 0.184; in that of UniProt P25398_C50, inactive: 0.158; in that of CAST C381 (UniProt P20810), inactive: 0.418.
